Results as given in the supplement of paper PMC10849652.
Some of the results follow.

Amino acid sequences for entries named in this document (tags omitted). A change or cut given only in a name is not applied to a line headed by its entry.
UniProt O43310: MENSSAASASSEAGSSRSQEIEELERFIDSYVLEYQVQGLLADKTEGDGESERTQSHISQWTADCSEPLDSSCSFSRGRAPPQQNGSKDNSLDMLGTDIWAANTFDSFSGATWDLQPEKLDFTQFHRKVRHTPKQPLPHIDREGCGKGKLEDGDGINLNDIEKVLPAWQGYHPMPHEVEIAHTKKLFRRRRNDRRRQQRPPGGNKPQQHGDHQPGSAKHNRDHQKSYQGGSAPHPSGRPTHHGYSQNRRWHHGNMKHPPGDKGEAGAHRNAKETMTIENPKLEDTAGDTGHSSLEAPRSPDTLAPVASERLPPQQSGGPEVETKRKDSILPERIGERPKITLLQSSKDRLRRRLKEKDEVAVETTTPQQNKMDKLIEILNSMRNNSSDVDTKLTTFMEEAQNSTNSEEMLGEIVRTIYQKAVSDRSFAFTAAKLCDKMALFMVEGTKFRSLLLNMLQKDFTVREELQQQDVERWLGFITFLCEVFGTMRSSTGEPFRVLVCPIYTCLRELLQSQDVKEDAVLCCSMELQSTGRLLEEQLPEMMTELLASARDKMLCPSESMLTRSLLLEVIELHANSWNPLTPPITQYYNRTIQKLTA
UniProt P27707: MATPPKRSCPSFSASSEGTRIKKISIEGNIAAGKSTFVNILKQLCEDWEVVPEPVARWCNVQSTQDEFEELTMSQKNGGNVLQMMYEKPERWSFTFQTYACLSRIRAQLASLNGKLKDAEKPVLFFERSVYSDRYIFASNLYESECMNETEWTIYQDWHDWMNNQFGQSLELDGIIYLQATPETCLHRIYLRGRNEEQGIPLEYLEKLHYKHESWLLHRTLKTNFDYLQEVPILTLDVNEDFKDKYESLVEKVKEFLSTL
UniProt Q05048: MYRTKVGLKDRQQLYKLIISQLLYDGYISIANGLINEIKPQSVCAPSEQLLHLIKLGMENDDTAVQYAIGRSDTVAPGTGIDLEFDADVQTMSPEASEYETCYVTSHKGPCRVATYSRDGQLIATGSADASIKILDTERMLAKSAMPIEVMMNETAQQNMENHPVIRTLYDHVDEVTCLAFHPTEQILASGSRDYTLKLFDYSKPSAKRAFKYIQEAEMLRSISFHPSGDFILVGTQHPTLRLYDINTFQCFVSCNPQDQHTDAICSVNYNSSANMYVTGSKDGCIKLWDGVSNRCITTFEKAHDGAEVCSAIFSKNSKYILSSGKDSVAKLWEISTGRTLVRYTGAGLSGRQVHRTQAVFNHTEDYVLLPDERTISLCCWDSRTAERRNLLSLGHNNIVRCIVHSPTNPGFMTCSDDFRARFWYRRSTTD
UniProt O60716: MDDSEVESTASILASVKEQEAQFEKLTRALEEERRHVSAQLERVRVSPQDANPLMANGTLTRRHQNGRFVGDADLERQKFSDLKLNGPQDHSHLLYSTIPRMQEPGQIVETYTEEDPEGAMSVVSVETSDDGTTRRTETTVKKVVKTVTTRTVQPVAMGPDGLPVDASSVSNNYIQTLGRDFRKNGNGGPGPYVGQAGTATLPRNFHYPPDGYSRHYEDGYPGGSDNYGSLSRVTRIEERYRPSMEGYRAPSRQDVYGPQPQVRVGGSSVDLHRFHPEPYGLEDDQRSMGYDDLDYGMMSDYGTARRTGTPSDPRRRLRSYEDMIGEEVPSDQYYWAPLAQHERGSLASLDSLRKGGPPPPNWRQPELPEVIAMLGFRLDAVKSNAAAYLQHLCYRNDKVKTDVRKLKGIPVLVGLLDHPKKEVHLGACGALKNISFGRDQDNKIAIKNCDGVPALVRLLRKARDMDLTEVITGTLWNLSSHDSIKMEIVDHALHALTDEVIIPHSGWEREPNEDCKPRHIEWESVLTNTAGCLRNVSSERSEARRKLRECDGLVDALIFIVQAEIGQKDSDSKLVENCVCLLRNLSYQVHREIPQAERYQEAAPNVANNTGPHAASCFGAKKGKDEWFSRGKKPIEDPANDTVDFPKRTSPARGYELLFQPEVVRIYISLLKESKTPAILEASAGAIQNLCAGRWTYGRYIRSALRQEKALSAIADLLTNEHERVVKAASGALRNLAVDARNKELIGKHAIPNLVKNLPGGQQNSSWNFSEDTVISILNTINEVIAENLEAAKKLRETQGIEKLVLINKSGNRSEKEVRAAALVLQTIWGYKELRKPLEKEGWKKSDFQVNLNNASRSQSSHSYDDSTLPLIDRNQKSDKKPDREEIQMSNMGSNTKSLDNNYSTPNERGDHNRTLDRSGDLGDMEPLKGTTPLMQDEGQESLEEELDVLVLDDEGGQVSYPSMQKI
UniProt P0DMU8: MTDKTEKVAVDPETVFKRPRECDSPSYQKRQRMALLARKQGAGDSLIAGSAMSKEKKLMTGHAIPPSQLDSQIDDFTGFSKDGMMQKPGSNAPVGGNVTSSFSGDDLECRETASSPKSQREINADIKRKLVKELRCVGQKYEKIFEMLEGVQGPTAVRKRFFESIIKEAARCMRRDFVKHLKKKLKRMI
UniProt Q66K64, whole entry, looked up: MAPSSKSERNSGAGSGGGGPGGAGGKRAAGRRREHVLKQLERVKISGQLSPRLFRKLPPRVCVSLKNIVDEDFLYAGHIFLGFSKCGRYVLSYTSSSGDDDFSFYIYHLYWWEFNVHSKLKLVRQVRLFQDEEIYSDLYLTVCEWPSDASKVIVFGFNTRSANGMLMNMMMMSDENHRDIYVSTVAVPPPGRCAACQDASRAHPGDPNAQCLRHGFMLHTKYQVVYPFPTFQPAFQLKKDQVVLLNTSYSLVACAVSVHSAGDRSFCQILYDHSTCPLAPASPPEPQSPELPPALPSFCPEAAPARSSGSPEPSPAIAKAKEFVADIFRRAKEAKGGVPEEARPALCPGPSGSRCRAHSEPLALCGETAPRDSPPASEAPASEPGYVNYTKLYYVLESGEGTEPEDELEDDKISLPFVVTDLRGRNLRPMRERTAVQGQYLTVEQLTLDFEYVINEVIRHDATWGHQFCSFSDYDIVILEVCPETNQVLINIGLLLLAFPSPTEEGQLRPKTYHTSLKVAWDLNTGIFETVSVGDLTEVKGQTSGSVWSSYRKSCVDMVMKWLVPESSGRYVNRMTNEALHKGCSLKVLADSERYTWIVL
UniProt Q13618, whole entry, looked up: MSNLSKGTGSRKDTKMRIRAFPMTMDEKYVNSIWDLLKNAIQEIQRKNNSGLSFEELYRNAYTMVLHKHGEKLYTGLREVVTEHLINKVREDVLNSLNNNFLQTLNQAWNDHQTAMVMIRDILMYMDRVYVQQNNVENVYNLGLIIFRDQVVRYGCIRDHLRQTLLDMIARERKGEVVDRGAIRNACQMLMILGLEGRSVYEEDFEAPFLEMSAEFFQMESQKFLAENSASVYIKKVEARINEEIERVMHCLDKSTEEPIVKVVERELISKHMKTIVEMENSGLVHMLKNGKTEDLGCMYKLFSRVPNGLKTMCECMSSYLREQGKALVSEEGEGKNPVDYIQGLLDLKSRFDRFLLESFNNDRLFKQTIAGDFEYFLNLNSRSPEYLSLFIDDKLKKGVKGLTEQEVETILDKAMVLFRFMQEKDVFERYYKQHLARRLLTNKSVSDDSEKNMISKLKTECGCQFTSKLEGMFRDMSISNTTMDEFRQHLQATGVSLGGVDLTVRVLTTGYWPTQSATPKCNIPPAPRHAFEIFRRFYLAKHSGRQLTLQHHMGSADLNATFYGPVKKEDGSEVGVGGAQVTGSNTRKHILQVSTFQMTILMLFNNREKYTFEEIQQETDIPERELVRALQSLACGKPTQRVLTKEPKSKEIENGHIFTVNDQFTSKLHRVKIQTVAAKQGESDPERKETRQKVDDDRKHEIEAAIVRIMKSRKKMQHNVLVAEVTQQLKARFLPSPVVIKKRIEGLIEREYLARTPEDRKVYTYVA
UniProt P01034: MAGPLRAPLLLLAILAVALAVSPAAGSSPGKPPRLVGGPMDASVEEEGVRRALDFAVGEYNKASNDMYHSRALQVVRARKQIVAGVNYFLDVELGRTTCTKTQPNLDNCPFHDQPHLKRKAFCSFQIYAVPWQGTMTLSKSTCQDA
UniProt Q8WUE5: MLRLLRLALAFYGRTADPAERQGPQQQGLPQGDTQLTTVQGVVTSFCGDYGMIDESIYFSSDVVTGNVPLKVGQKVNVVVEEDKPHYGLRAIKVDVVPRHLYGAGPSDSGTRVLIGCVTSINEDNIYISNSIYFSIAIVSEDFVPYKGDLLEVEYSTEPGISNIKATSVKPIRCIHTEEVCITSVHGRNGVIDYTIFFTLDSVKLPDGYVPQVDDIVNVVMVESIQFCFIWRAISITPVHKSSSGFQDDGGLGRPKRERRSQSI
UniProt Q13619, whole entry, looked up: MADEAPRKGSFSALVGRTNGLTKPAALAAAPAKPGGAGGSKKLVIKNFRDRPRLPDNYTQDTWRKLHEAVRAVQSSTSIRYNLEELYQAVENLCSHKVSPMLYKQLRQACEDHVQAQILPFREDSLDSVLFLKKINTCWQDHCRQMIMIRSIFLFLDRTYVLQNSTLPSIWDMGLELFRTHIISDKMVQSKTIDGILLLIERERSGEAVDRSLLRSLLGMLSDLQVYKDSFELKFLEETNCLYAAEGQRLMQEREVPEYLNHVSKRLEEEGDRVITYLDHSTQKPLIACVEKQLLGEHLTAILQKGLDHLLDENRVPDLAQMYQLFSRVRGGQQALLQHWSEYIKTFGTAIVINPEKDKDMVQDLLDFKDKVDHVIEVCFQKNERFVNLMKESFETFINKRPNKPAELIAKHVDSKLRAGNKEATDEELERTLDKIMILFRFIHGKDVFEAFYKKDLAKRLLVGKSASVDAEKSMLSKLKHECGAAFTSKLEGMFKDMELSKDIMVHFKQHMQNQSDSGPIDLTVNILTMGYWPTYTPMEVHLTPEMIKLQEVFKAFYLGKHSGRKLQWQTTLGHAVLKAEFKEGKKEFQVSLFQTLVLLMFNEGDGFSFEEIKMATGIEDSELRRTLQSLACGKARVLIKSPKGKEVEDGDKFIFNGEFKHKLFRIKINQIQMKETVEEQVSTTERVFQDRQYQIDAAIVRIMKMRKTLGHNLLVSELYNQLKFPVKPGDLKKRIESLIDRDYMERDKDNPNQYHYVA
UniProt Q8TB03: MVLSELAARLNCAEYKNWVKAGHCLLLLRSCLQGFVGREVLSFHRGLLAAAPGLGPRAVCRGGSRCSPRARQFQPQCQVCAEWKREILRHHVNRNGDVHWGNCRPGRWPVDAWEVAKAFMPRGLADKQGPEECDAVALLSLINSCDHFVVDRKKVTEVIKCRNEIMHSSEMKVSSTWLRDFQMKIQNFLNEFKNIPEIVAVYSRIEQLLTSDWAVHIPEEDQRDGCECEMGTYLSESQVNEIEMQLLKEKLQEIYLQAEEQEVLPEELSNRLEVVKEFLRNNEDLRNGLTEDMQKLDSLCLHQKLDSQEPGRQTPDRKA
UniProt Q69YN2: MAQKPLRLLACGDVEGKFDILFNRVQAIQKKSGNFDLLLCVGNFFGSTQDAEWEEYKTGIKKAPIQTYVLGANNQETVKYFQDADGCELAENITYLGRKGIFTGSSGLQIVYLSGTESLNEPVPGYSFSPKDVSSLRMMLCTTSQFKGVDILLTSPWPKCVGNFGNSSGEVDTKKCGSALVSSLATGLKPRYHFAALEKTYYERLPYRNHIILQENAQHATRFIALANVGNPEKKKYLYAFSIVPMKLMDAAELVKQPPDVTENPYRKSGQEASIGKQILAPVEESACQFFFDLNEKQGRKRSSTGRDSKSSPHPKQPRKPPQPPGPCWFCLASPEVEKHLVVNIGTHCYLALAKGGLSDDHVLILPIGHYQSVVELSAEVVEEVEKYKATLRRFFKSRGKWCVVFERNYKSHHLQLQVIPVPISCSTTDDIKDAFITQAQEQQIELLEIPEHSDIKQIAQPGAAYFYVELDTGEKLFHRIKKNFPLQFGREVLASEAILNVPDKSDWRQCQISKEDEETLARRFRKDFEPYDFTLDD
UniProt Q8NA75: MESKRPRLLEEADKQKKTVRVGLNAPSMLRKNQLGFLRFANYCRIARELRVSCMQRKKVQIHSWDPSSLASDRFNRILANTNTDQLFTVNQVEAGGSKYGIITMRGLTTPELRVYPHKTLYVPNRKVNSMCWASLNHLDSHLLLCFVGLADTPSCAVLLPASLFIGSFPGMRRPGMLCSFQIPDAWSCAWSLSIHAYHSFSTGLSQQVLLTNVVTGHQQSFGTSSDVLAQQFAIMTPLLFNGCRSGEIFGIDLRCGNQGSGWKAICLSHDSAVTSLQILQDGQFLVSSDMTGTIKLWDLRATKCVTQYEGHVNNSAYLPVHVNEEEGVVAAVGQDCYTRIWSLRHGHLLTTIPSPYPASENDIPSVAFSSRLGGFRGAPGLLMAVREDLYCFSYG
UniProt Q9UHQ9: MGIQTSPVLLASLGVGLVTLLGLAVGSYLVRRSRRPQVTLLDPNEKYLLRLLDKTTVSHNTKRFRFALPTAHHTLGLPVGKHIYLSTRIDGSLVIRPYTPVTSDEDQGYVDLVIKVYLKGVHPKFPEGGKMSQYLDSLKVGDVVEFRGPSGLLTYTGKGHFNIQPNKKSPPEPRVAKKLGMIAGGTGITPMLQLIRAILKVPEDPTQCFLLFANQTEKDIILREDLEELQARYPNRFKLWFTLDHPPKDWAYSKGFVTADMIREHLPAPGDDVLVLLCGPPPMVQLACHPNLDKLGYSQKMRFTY

Compound: c1cn2cc(-c3ccc4cn[nH]c4c3)nc(Nc3ccc(N4CCOCC4)cc3)c2n1 [entospletinib]
Assay: log2 fold change, soluble protein after heating vs DMSO (PISA); higher = thermal stabilisation; K562 cells, 10 uM, 30 min; active = over 0.2 and 3.5 SD of the protein, either way, in both replicates (recomputed)
In short: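 Quantification of soluble protein used TMTpro 16plex LC-MS/MS, with channel sums equalised. Samples were the supernatant after 21,000xg for 90 min of pooled aliquots from K562 cells (2×10^6 cells/mL) treated with 10 μM compound for 30 min, heated for 3 min over 48°C-58°C, and extracted in PBS with 0.5% NP-40 at 4°C. Values, from duplicates, describe thermal stability against control samples on a log2 fold-change scale.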

log2 fold change, inactive:
CUL5 (UniProt Q93034) -0.017
CTIF isoform 2 (UniProt O43310) 0.165
DCK (UniProt P27707) -0.027
CSTF1 (UniProt Q05048) -0.021
CYFIP2 (UniProt Q96F07) 0.026
CTNND1 (UniProt O60716) 0.166
CUTC (UniProt Q9NTM9) 0.026
CTCF (UniProt P49711) 0.098
CYP4V2 (UniProt Q6ZWL3) 0.038
DARS (UniProt P14868) 0.027
CT45A5 (UniProt P0DMU8) -0.004
DCAF15 (UniProt Q66K64) -0.102
DCTN4 (UniProt Q9UJW0) -0.021
CYB5R2 (UniProt Q6BCY4) -0.004
CUL3 (UniProt Q13618) -0.051
CTR9 (UniProt Q6PD62) 0.321
CT47A1 (UniProt Q5JQC4) 0.03
CST3 (UniProt P01034) -0.005
CT55 (UniProt Q8WUE5) -0.005
CUL4A (UniProt Q13619) -0.057
CUL4B (UniProt K4DI93) -0.012
DCTN2 isoform 2 (UniProt Q13561) -0.005
CXorf38 (UniProt Q8TB03) -0.041
CTPS2 (UniProt Q9NRF8) -0.031
CWF19L1 (UniProt Q69YN2) 0.014
CTTN (UniProt Q14247) -0.001
CTBP1 (UniProt Q13363) -0.038
DCAF4L2 (UniProt Q8NA75) -0.083
CYB5R1 (UniProt Q9UHQ9) 0.027

Two entries picked at random from the list so far:
log2 fold change, inactive:
DCAF4L2 (UniProt Q8NA75) -0.083
CUTC (UniProt Q9NTM9) 0.026
